{"source": "patent US20070253953A1", "about": "“Molecular Signature of the Pten Tumor Suppressor” (REGENTS OF THE UNIVERSITY OF CALIFORNIA, THE, priority 2003, published 2007)", "key": {"IGFBP2": {"test_system": "IGFBP2", "test": "Western blot of IGFBP2 expression in PTEN-mutated LNCaP cells treated with PI3K inhibitor", "format": "cell-based"}, "Akt": {"test_system": "Akt", "test": "Western blot of Akt phosphorylation in LNCaP cells treated with PI3K inhibitor", "format": "cell-based"}}, "note": "For at least one compound, name, drawing or mass did not settle the structure.", "data": [{"smiles": "O=c1cc(N2CCOCC2)oc2c(-c3ccccc3)cccc12", "note": "[LY294002]", "values": [{"measurement": "production / expression of IGFBP2", "setting": "IGFBP2", "value": "reduced to the basal level"}, {"measurement": "Akt phosphorylation", "setting": "Akt", "value": "reduced"}]}]}
